In PMC8910673:
These are yes or no findings as the source states them, for the method shown. For part of these data: In cells and extracts the contact can be indirect. For part of these data: A result given as binding can be weak or reduced; the word gives no strength. Tags and fused reporters may be left off the sequences shown. Blank lines part the entries; values can stand above or below the binder they belong to.

Assays:
[1] = target: NDR2 (LCI fusion) (Arabidopsis thaliana); experiment: split reporter; firefly luciferase complementation imaging (LCI) in N. benthamiana leaves, 2-4 days after infiltration; 1 mM D-luciferin, CCD imaging
[2] = target: NDR4 (LCI fusion) (Arabidopsis thaliana); experiment: as above
[3] = target: NDR5 (LCI fusion) (Arabidopsis thaliana); experiment: as above
[4] = target: NDR2 (yeast two-hybrid fusion) (Arabidopsis thaliana); experiment: two-hybrid; Gal4 system (Clontech), yeast strain AH109; growth on SD/-Trp-Leu-His, 3-7 days at 28 °C
[5] = target: NDR4 (yeast two-hybrid fusion) (Arabidopsis thaliana); experiment: as above
[6] = target: NDR5 (yeast two-hybrid fusion) (Arabidopsis thaliana); experiment: as above

- binding [4]: no binding
- binding [5]: no binding
- binding [6]: no binding
B2: MAP3Kε1 (pGADT7, AD fusion) (protein, UniProt Q9LJD8 1-1368)
chain: MARQMTSSQFHKSKTLDNKYMLGDEIGKGAYGRVYKGLDLENGDFVAIKQVSLENIVQEDLNTIMQEIDLLKNLNHKNIVKYLGSSKTKTHLHIILEYVENGSLANIIKPNKFGPFPESLVAVYIAQVLEGLVYLHEQGVIHRDIKGANILTTKEGLVKLADFGVATKLNEADVNTHSVVGTPYWMAPEVIEMSGVCAASDIWSVGCTVIELLTCVPPYYDLQPMPALFRIVQDDNPPIPDSLSPDITDFLRQCFKKDSRQRPDAKTLLSHPWIRNSRRALQSSLRHSGTIKYMKEATASSEKDDEGSQDAAESLSGENVGISKTDSKSKLPLVGVSSFRSEKDQSTPSDLGEEGTDNSEDDIMSDQVPTLSIHEKSSDAKGTPQDVSDFHGKSERGETPENLVTETSEARKNTSAIKHVGKELSIPVDQTSHSFGRKGEERGIRKAVKTPSSVSGNELARFSDPPGDASLHDLFHPLDKVSEGKPNEASTSMPTSNVNQGDSPVADGGKNDLATKLRATIAQKQMEGETGHSNDGGDLFRLMMGVLKDDVIDIDGLVFDEKVPAENLFPLQAVEFSRLVSSLRPDESEDAIVSSCQKLVAMFRQRPEQKVVFVTQHGFLPLMDLLDIPKSRVICAVLQLINEIIKDNTDFQENACLVGLIPVVMSFAGPERDRSREIRKEAAYFLQQLCQSSPLTLQMFIACRGIPVLVGFLEADYAKYREMVHLAIDGMWQVFKLKRSTPRNDFCRIAAKNGILLRLINTLYSLNEATRLASISGGLDGQAPRVRSGQLDPNNPIFGQNETSSLSMIDQPDVLKTRHGGGEEPSHASTSNSQRSDVHQPDALHPDGDKPRVSSVAPDASTSGTEDVRQQHRISLSANRTSTDKLQKLAEGASNGFPVTQTEQVRPLLSLLDKEPPSRHYSGQLDYVKHITGIERHESRLPLLHGSNEKKNNGDLDFLMAEFAEVSGRGKENGSLDTTTRYPSKTMTKKVLAIEGVASTSGIASQTASGVLSGSGVLNARPGSATSSGLLAHMVSTLSADVAREYLEKVADLLLEFARADTTVKSYMCSQSLLSRLFQMFNRVEPPILLKILECTNHLSTDPNCLENLQRADAIKHLIPNLELKDGHLVYQIHHEVLSALFNLCKINKRRQEQAAENGIIPHLMLFIMSDSPLKQYALPLLCDMAHASRNSREQLRAHGGLDVYLSLLDDEYWSVIALDSIAVCLAQDNDNRKVEQALLKQDAIQKLVDFFQSCPERHFVHILEPFLKIITKSYRINKTLAVNGLTPLLISRLDHQDAIARLNLLKLIKAVYEHHPRPKQLIVENDLPQKLQNLIEERRDGQRSGGQVLVKQMATSLLKALHINTIL

- binding [1]: binds
- binding [2]: binds
- binding [3]: no binding
B3: CLuc-MAP3Kε2 (protein, UniProt Q9SFB6 1-1367)
chain: MARQMTSSQFHKSKTLDNKYMLGDEIGKGAYGRVYIGLDLENGDFVAIKQVSLENIGQEDLNTIMQEIDLLKNLNHKNIVKYLGSLKTKTHLHIILEYVENGSLANIIKPNKFGPFPESLVTVYIAQVLEGLVYLHEQGVIHRDIKGANILTTKEGLVKLADFGVATKLNEADFNTHSVVGTPYWMAPEVIELSGVCAASDIWSVGCTIIELLTCVPPYYDLQPMPALYRIVQDDTPPIPDSLSPDITDFLRLCFKKDSRQRPDAKTLLSHPWIRNSRRALRSSLRHSGTIRYMKETDSSSEKDAEGSQEVVESVSAEKVEVTKTNSKSKLPVIGGASFRSEKDQSSPSDLGEEGTDSEDDINSDQGPTLSMHDKSSRQSGTCSISSDAKGTSQDVLENHEKYDRDEIPGNLETEASEGRRNTLATKLVGKEYSIQSSHSFSQKGEDGLRKAVKTPSSFGGNELTRFSDPPGDASLHDLFHPLDKVPEGKTNEASTSTPTANVNQGDSPVADGGKNDLATKLRARIAQKQMEGETGHSQDGGDLFRLMMGVLKDDVLNIDDLVFDEKVPPENLFPLQAVEFSRLVSSLRPDESEDAIVTSSLKLVAMFRQRPGQKAVFVTQNGFLPLMDLLDIPKSRVICAVLQLINEIVKDNTDFLENACLVGLIPLVMSFAGFERDRSREIRKEAAYFLQQLCQSSPLTLQMFISCRGIPVLVGFLEADYAKHREMVHLAIDGMWQVFKLKKSTSRNDFCRIAAKNGILLRLVNTLYSLSEATRLASISGDALILDGQTPRARSGQLDPNNPIFSQRETSPSVIDHPDGLKTRNGGGEEPSHALTSNSQSSDVHQPDALHPDGDRPRLSSVVADATEDVIQQHRISLSANRTSTDKLQKLAEGASNGFPVTQPDQVRPLLSLLEKEPPSRKISGQLDYVKHIAGIERHESRLPLLYASDEKKTNGDLEFIMAEFAEVSGRGKENGNLDTAPRYSSKTMTKKVMAIERVASTCGIASQTASGVLSGSGVLNARPGSTTSSGLLAHALSADVSMDYLEKVADLLLEFARAETTVKSYMCSQSLLSRLFQMFNRVEPPILLKILECTNHLSTDPNCLENLQRADAIKQLIPNLELKEGPLVYQIHHEVLSALFNLCKINKRRQEQAAENGIIPHLMLFVMSDSPLKQYALPLLCDMAHASRNSREQLRAHGGLDVYLSLLDDEYWSVIALDSIAVCLAQDVDQKVEQAFLKKDAIQKLVNFFQNCPERHFVHILEPFLKIITKSSSINKTLALNGLTPLLIARLDHQDAIARLNLLKLIKAVYEKHPKPKQLIVENDLPQKLQNLIEERRDGQRSGGQVLVKQMATSLLKALHINTIL

Further lines, the binder ahead of its results:

B1: CLuc-MAP3Kε1 (protein, UniProt Q9LJD8 1-1368)
chain: B2 chain
- binding [1]: binds
- binding [2]: binds
- binding [3]: no binding

B4: MAP3Kε2 (pGADT7, AD fusion) (protein, UniProt Q9SFB6 1-1367)
chain: B3 chain
- binding [4]: no binding
- binding [5]: no binding
- binding [6]: no binding
